The text below walks through data of publication PMC7405549.

For experiment [1], the target named is T1, Acheron/LARP6 (human) (human (endogenous in HCC1935)) (UniProt Q9BRS8).
T1 sequence: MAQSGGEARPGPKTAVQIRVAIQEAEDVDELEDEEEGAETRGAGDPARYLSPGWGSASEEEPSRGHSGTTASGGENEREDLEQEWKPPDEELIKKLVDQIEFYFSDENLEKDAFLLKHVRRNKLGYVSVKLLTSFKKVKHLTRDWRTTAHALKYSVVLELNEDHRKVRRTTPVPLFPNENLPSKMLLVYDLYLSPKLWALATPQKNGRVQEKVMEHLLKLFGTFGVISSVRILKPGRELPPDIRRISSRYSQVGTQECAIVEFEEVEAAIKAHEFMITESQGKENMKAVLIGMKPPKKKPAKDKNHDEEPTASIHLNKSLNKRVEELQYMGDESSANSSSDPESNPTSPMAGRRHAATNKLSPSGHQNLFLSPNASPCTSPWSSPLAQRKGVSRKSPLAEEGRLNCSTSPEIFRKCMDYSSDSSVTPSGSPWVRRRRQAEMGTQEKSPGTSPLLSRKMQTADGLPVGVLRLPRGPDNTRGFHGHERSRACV
Kind of experiment: co-IP; human HCC1935 breast cancer cells; data not shown.

For experiment [2], the target named is T2, Acheron/Larp6 (mouse) (mouse (endogenous in C2C12)) (UniProt Q8BN59).
T2 sequence: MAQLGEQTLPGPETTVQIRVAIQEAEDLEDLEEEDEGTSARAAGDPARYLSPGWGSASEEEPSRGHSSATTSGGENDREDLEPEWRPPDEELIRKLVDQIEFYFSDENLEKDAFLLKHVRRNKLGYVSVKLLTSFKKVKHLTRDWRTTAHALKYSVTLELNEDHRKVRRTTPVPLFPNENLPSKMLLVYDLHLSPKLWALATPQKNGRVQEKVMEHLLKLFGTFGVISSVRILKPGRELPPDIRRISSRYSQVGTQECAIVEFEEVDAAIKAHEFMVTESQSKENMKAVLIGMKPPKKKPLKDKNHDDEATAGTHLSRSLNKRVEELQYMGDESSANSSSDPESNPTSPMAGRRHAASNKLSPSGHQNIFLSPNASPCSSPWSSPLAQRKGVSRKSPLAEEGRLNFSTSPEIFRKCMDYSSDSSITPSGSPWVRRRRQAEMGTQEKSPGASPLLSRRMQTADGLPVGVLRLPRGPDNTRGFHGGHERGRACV
As to the kind of experiment: co-IP; mouse C2C12 myoblast lysates (400-500 ug) with rabbit polyclonal anti-Acheron antibody (1:200) overnight at 4°C, protein A sepharose; 10 mM Tris pH 7.4, 1% triton, 0.5% NP-40, 150 mM NaCl; immunoblot for partners. In general terms: In western blotting, separated proteins are transferred to a membrane and probed.

No constants are given. Whether binding was seen depends on the method and setting. Binding seen in cells or lysates may run through a third protein. Some binding calls cover weakened binding; strength is not graded here.

B1: BAD (human) (protein, UniProt Q92934 1-168)
chain: MFQIPEFEPSEQEDSSSAERGLGPSPAGDGPSGSGKHHRQAPGLLWDASHQQEQPTSSSHHGGAGAVEIRSRHSSYPAGTEDDEGMGEEPSPFRGRSRSAPPNLWAAQRYGRELRRMSDEFVDSFKKGLPRPKSAGTATQMRQSSSWTRVFQSWWDRNLGRGSSAPSQ
Turning to B1, the binding result in experiment [1] is listed as “binds”.

B2: CASK (mouse) (protein, UniProt O70589 1-926)
chain: MADDDVLFEDVYELCEVIGKGPFSVVRRCINRETGQQFAVKIVDVAKFTSSPGLSTEDLKREASICHMLKHPHIVELLETYSSDGMLYMVFEFMDGADLCFEIVKRADAGFVYSEAVASHYMRQILEALRYCHDNNIIHRDVKPHCVLLASKENSAPVKLGGFGVAIQLGESGLVAGGRVGTPHFMAPEVVKREPYGKPVDVWGCGVILFILLSGCLPFYGTKERLFEGIIKGKYKMNPRQWSHISESAKDLVRRMLMLDPAERITVYEALNHPWLKERDRYAYKIHLPETVEQLRKFNARRKLKGAVLAAVSSHKFNSFYGDPPEELPDFSEDPTSSGLLAAERAVSQVLDSLEEIHALTDCSEKDLDFLHSVFQDQHLHTLLDLYDKINTKSSPQIRNPPSDAVQRAKEVLEEISCYPENNDAKELKRILTQPHFMALLQTHDVVAHEVYSDEALRVTPPPTSPYLNGDSPESANGDMDMENVTRVRLVQFQKNTDEPMGITLKMNELNHCIVARIMHGGMIHRQGTLHVGDEIREINGISVANQTVEQLQKMLREMRGSITFKIVPSYRTQSSSCERDSPSTSRQSPANGHSSTNNSVSDLPSTTQPKGRQIYVRAQFEYDPAKDDLIPCKEAGIRFRVGDIIQIISKDDHNWWQGKLENSKNGTAGLIPSPELQEWRVACIAMEKTKQEQQASCTWFGKKKKQYKDKYLAKHNAVFDQLDLVTYEEVVKLPAFKRKTLVLLGAHGVGRRHIKNTLITKHPDRFAYPIPHTTRPPKKDEENGKNYYFVSHDQMMQDISNNEYLEYGSHEDAMYGTKLETIRKIHEQGLIAILDVEPQALKVLRTAEFAPFVVFIAAPTITPGLNEDESLQRLQKESDVLQRTYAHYFDLTIINNEIDETIRHLEEAVELVCTAPQWVPVSWVY
Turning to B2, the binding entry in experiment [2] is “binds”.

B3: BAD (mouse) (protein, UniProt Q61337 1-204)
chain: MGTPKQPSLAPAHALGLRKSDPGIRSLGSDAGGRRWRPAAQSMFQIPEFEPSEQEDASATDRGLGPSLTEDQPGPYLAPGLLGSNIHQQGRAATNSHHGGAGAMETRSRHSSYPAGTEEDEGMEEELSPFRGRSRSAPPNLWAAQRYGRELRRMSDEFEGSFKGLPRPKSAGTATQMRQSAGWTRIIQSWWDRNLGKGGSTPSQ
Take B3: the binding result in experiment [2] is recorded as “binds”.
